Assay [1] concerns the target optineurin (human (endogenous in HFF)) (UniProt Q96CV9). In words: affinity purification with mass spectrometry.
Assay [2] addresses sequestome 1 (SQSTM1/p62) (human (endogenous in HFF)) (UniProt Q13501). Briefly: affinity purification with mass spectrometry.

By UniProt entry, the sequences of proteins in these tests, tags left out.
UniProt Q96CV9: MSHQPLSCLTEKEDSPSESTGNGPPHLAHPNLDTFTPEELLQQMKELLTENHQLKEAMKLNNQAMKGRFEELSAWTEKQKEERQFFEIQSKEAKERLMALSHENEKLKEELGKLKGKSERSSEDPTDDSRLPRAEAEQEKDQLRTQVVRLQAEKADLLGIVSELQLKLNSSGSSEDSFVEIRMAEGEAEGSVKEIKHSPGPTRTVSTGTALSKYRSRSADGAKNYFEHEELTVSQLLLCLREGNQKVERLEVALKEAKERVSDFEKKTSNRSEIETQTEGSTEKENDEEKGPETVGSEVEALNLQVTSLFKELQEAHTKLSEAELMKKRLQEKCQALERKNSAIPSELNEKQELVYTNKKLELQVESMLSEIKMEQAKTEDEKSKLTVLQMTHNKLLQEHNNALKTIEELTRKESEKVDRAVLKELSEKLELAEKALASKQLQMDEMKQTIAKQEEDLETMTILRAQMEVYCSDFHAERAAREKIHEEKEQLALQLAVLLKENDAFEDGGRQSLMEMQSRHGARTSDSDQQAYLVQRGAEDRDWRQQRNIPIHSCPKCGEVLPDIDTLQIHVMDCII
UniProt P16790: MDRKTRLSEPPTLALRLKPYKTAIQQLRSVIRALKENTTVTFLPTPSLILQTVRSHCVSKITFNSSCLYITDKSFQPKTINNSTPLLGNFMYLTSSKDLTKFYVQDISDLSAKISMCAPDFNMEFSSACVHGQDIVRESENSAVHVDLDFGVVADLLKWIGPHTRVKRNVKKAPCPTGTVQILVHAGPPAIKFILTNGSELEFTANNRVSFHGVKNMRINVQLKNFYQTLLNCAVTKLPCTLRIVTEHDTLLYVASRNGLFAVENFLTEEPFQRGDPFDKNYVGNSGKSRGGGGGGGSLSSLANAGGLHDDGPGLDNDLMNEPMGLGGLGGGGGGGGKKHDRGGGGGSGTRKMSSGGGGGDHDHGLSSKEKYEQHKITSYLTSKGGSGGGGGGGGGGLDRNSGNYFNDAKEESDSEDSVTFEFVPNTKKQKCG
UniProt P16791: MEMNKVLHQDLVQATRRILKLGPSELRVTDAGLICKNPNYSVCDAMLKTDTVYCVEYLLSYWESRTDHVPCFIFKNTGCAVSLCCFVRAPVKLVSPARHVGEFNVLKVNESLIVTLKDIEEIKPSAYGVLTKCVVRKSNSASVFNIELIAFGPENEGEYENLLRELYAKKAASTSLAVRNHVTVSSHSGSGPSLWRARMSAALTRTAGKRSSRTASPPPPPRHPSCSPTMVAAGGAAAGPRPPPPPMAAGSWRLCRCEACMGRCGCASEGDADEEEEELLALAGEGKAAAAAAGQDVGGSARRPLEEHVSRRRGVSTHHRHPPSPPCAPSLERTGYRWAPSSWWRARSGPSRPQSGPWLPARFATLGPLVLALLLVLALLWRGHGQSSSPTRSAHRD
UniProt P16794: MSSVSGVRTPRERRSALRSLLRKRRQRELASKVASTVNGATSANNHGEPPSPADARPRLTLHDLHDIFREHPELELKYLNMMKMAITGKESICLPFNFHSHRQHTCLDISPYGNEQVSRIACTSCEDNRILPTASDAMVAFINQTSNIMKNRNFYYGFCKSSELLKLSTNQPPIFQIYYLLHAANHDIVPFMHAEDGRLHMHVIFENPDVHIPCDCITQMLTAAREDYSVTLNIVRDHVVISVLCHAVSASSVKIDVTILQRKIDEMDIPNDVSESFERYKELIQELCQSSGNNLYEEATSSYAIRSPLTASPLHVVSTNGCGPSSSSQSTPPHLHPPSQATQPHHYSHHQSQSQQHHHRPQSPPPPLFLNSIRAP
UniProt P16788: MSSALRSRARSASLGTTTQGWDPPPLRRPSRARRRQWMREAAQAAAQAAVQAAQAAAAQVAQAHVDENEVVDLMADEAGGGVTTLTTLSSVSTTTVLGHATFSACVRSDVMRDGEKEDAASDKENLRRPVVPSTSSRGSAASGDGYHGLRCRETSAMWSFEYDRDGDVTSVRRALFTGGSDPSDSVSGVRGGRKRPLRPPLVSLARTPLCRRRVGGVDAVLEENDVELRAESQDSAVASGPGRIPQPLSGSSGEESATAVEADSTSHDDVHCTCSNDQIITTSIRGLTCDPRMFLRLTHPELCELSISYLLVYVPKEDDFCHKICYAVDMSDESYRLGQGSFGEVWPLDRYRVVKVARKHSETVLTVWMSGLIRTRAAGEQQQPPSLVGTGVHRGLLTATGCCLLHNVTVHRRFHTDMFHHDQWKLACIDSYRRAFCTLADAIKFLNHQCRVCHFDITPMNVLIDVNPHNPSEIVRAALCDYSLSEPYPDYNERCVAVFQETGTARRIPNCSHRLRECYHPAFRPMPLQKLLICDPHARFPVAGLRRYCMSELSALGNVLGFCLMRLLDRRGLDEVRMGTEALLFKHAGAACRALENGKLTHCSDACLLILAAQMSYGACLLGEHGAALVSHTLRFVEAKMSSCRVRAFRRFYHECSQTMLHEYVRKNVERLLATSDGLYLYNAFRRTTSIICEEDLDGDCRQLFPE

Results are given in words; binding and its absence hold for the method and conditions named. In cells and extracts the contact can be indirect. Here binding means that the protein was enriched with, or labelled near, the bait; the list need not be complete. For some of these results: A no says only that the protein was not detected with the bait.

pUL44 (from UniProt P16790 1-433): the results for the binding entry in assay [1] and in assay [2] were “no binding” and “binds”, respectively.
For the molecule pUL50 (from UniProt P16791 1-397), the binding result is reported as “no binding” in assay [1] and “binds” in assay [2].
The corresponding values for pUL53 (from UniProt P16794 1-376) are “no binding” and “binds”.
For pUL97 (from UniProt P16788 1-707), in that order: “no binding” and “binds”.

B1: pUL84 (protein, UniProt P16727 1-586)
chain: MPRVDPNLRNRARRPRARRGGGGGVGSNSSRHSGKCRRQRRALSAPPLTFLATTTTTTMMGVASTDDDSLLLKTPDELDKYSGSPQTILTLTDKHDIRQPRVHRGTYHLIQLHLDLRPEELRDPFQILLSTPLQLGEANDESQTAPATLQEEETAASHEPEKKKEKQEKKEEDEDDRNDDRERGILCVVSNEDSDVRPAFSLFPARPGCHILRSVIDQQLTRMAIVRLSLNLFALRIITPLLKRLPLRRKAAHHTALHDCLALHLPELTFEPTLDINNVTENAASVADTAESTDADLTPTLTVRVRHALCWHRVEGGISGPRGLTSRISARLSETTAKTLGPSVFGRLELDPNESPPDLTLSSLTLYQDGILRFNVTCDRTEAPADPVAFRLRLRRETVRRPFFSDAPLPYFVPPRSGAADEGLEVRVPYELTLKNSHTLRIYRRFYGPYLGVFVPHNRQGLKMPVTVWLPRSWLELTVLVSDENGATFPRDALLGRLYFISSKHTLNRGCLSAMTHQVKSTLHSRSTSHSPSQQQLSVLGASIALEDLLPMRLASPETEPQDCKLTENTTEKTSPVTLAMVCGDL
For the molecule B1, the binding entry in assay [1] and in assay [2] was “binds” throughout.

Source of the values: PMC11436200.
